Data reported in paper PMC7838639.
No constants are given. Whether binding was seen depends on the method and setting. In cells and extracts the contact can be indirect. Some binding calls cover weakened binding; strength is not graded here.

Target: FLAG-TFE3 (pcDNA3.1-TFE3-N-FLAG) (mouse) (UniProt Q64092)
Experiment: co-IP; lysates of COS-7 cells expressing FLAG-TFE3 and MYC-HDAC5 (full length and deletion mutants); IP with anti-FLAG M2 agarose 2 h at 4 °C, blot with anti-MYC; lysis buffer 50 mM potassium phosphate, 150 mM sodium chloride, 0.5% Triton X-100, pH 7.4

For “MYC-HDAC5, full length (pcDNA3.1-HDAC5-MYC) (from UniProt Q9UQL6 1-1122) (enzyme)”, the binding was “binds”.
